# Experimental data: PubChem BioAssay AID2685 (National Center for Advancing Translational Sciences (NCATS), 2010)
# The list shows a part of the results. The main result of the screen is listed elsewhere. These columns were measured beside it and carry no call. The list favours compounds with an active or inconclusive main result. Words in brackets tell the shape of the fitted curve; partial curves, single points and poor fits give uncertain potencies.
# Assay: qHTS Assay for Lipid Storage Modulators in Drosophila S3 Cells;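 as to cell number change: cells counted by Cell Tracker Red CMTPX staining in the red channel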
# Conditions: BODIPY lipid droplet fluorescence, 18-24 h; for cell number change: measured here: cell count max response, cells fed with added oleic acid
# Outline: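 Drosophila S3 cells got compounds at several concentrations plus oleic acid (400 uM solution). Laser-scanning cytometry with 488 nm excitation read lipid droplets at 500-530 nm and cells at 575-640 nm. Percent activity was relative to 20 uM Triacsin C.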
# [1] = measured here: lipid fluorescence (Fed channel) AC50, cells fed with added oleic acid
# [2] = measured here: cell number channel AC50, cells fed with added oleic acid
compound,measurement,setting,value
CCn1c(Cc2ccc(OC)cc2)nc2ccccc21,cell number change,,-0.265%
same,AC50,[1],"29.1 µM [rising, single point]"
Nc1[nH]ncc1N=Nc1ccc(Cl)cc1,cell number change,,213%
same,AC50,[2],"29.1 µM [rising, single point]"
same,AC50,[1],"0.0184 µM [rising, full curve, poor fit]"
COc1ccc(NC(=O)CN(C)CC(=O)Nc2ccc(Cl)cc2F)cc1,cell number change,,-10.3%
same,AC50,[1],"0.00461 µM [rising, full curve, poor fit]"
CCC(=O)N(Cc1cc2cc(OC)ccc2[nH]c1=O)c1ccc(C)cc1C,cell number change,,-11.6%
same,AC50,[1],"1.3 µM [rising, single point]"
CCOC(=O)c1nn(-c2ccc(F)cc2)c2nc(-c3ccccc3)c(C#N)c(=O)n12,AC50,[1],"1.84 µM [rising, partial curve]"
COc1cc2c(cc1NC(=O)CSc1cccc[n+]1[O-])oc1ccccc12,cell number change,,-31.6%
same,AC50,[2],"5.8 µM [falling, partial curve, poor fit]"
same,AC50,[1],"6.51 µM [falling, single point]"
CC(C)[C@@H](C(=O)N1CCCC1)N1C(=O)N2CCc3c([nH]c4ccccc34)[C@@]2(C)C1=O,cell number change,,3.24%
same,AC50,[1],"29.1 µM [rising, single point]"
Cc1ccc(S(=O)(=O)N(C)C)cc1NC(=O)C(C)Sc1ccccc1 (stereo unspecified),cell number change,,25.4%
same,AC50,[2],"0.116 µM [rising, full curve, poor fit]"
CCOc1ccc(-n2nc3ccc(NC(=O)CC)cc3n2)cc1,cell number change,,-8.52%
same,AC50,[1],"2.31 µM [rising, single point]"
O=C(CN(C(=O)CCC(=O)Nc1ccccn1)c1ccc2c(c1)OCO2)NCc1ccc(F)cc1,cell number change,,-4.7%
O=C(O)CCn1cc(/C=C\C(=O)c2ccc(Cl)cc2)c(-c2cccc(Br)c2)n1,cell number change,,-24.6%
same,AC50,[1],"9.2 µM [falling, partial curve]"
O=C(Nc1ccncc1)c1ccc(NS(=O)(=O)c2cccc(F)c2)cc1,cell number change,,-18.9%
Cc1n[nH]c(C)c1S(=O)(=O)N1CCCC(C(=O)Nc2ccc(Br)cc2)C1 (stereo unspecified),cell number change,,3.8%
CCn1c(SCC(=O)N2CCCC2)nnc1-c1ccc(S(=O)(=O)N2CCCCCC2)cc1,cell number change,,-0.0913%
same,AC50,[2],"0.92 µM [falling, full curve, poor fit]"
same,AC50,[1],"0.58 µM [falling, full curve]"
Cc1ccc(NC(=O)[C@@H]2CCC(=O)N2C2OC(=O)c3ccccc32)cc1Cl (stereo partly specified),cell number change,,5.83%
same,AC50,[1],"2.91 µM [falling, single point]"
CC1CCCCN1CCCNC(=O)c1nn(C)c2c1CSc1ccccc1-2 (stereo unspecified),cell number change,,19.9%
CCOC(=O)c1ccc(NC(=O)c2nccnc2C(=O)O)cc1,AC50,[1],"1.16 µM [rising, single point]"
O=C(O)C(Cc1ccccc1)N1C(=O)CCC1=O (stereo unspecified),AC50,[1],"20.6 µM [falling, partial curve]"
O=C(CSc1nc2ccccc2n1S(=O)(=O)c1cccc([N+](=O)[O-])c1)NCc1cccs1,cell number change,,13.9%
same,AC50,[1],"6.51 µM [rising, single point]"
COc1ccccc1NC(=O)N1CCN(CCc2ccccc2)CC1,cell number change,,26%
same,AC50,[1],"6.51 µM [rising, single point]"
COc1ccc(C)cc1Nc1n[n+](-c2ccccc2)c(-c2ccc(NC(C)=O)cc2)s1,cell number change,,-8.08%
Cc1ccccc1C(=O)NC(=S)NC1CC1,cell number change,,41.4%
same,AC50,[2],"1.3 µM [rising, full curve, poor fit]"
COc1c(C)cccc1C(=O)Nc1ccc(CN2CCCCC2)cc1,cell number change,,18.6%
same,AC50,[1],"23.1 µM [rising, single point]"
CC(=O)NCCC(=O)Nc1cccc(S(=O)(=O)N(C)c2ccccc2)c1,cell number change,,11.7%
same,AC50,[1],"16.4 µM [rising, single point]"
Cc1ccc(C(=O)OCC(=O)Nc2ccc3[nH]c(=O)[nH]c3c2)cc1[N+](=O)[O-],cell number change,,-2.24%
same,AC50,[1],"0.731 µM [falling, full curve]"
CC(SC1=Nc2ccccc2C2CC=NN12)C(=O)NC1(C#N)CCCCC1 (stereo unspecified),cell number change,,-73.8%
same,AC50,[2],"2.59 µM [falling, full curve]"
same,AC50,[1],"8.2 µM [falling, partial curve]"
Cc1[nH]n(C(C)(C)C)c(=O)c1Sc1ccc(Cl)cc1,cell number change,,-5.05%
same,AC50,[1],"0.517 µM [rising, single point]"
O=C(NCCCO)c1ccc2[nH]c3c(c2c1)CCCC3,AC50,[2],"1.84 µM [rising, partial curve]"
same,AC50,[1],"1.3 µM [rising, partial curve]"
O=C(CCNC(=O)c1ccco1)NCc1ccccc1,cell number change,,-25.5%
same,AC50,[2],"2.59 µM [falling, single point]"
same,AC50,[1],"5.17 µM [falling, single point]"
COc1ccc2cc(C(=O)C3CCCN(Cc4cnc(N5CCOCC5)s4)C3)ccc2c1 (stereo unspecified),cell number change,,-7.16%
same,AC50,[1],"0.00461 µM [falling, full curve, poor fit]"
CCN(CC)N=Nc1ccc(C(=O)O)cc1,AC50,[2],"0.00461 µM [falling, full curve, poor fit]"
same,AC50,[1],"3.26 µM [falling, partial curve, poor fit]"
CN(C)c1cccc(C(=O)OCC(=O)NC2CCCC2)c1,AC50,[2],"6.51 µM [rising, single point]"
CCOC(=O)c1ccn(CSc2c(F)c(F)cc(F)c2F)n1,cell number change,,-2.86%
NNc1nc(Nc2ccc([N+](=O)[O-])cc2)nc(N2CCCCCC2)n1,cell number change,,-26.1%
same,AC50,[1],"29.1 µM [rising, partial curve]"
CN(C)S(=O)(=O)c1ccc(Cl)c(NC(=O)CN2CCCCCC2)c1,cell number change,,-19.7%
same,AC50,[1],"3.66 µM [falling, full curve]"
CN(C)CCN=Cc1c(O)n(Cc2ccccc2)c(=O)c2ccccc12,cell number change,,26.4%
same,AC50,[1],"0.058 µM [falling, full curve, poor fit]"
CCc1ccc(N(C(=O)CNC(=O)c2ccco2)C(C(=O)NC2CCCC2)c2cccnc2)cc1 (stereo unspecified),cell number change,,2.5%
same,AC50,[1],"0.0731 µM [falling, full curve, poor fit]"
CC(C)(C)c1ccc2c(c1)OC(C(=O)N/N=C\c1ccc[nH]1)CO2 (stereo unspecified),cell number change,,-2.31%
same,AC50,[1],"0.103 µM [rising, single point]"
CC(=O)c1ccc(OCc2cc(C(=O)NC(C)Cc3ccccn3)no2)cc1 (stereo unspecified),cell number change,,-12.5%
CC(O)c1nc2ccccc2n1CCCOc1ccccc1 (stereo unspecified),cell number change,,16.8%
same,AC50,[1],"3.66 µM [rising, full curve]"
CCOc1cc(/C=N\NC(=O)Cn2nnc3ccccc32)ccc1O,AC50,[1],"0.116 µM [rising, single point]"
CC(CCc1ccccc1)NC(=O)/C=C/c1ccc(Cl)cc1 (stereo unspecified),cell number change,,5.63%
same,AC50,[1],"9.2 µM [rising, partial curve, poor fit]"
COc1cccc(-c2noc(C3CCCN(C(=O)c4ccccc4OC)C3)n2)c1 (stereo unspecified),cell number change,,-21.1%
Cc1cc(/C=N/NC(=O)c2cccc(N(C)C)c2)c(C)n1-c1cc(C(=O)O)cc(C(=O)O)c1,cell number change,,-0.553%
same,AC50,[1],"6.51 µM [falling, single point]"
COc1cccc(NC(=O)NC2(C(=O)N3CCN(C)CC3)CCCCC2)c1,cell number change,,1.26%
COc1ccc(O)c(-c2c(-c3ccc(Cl)cc3)n[nH]c2C)c1,AC50,[2],"0.103 µM [rising, full curve, poor fit]"
same,AC50,[1],"2.91 µM [rising, partial curve]"
O=C(Nc1cccc(O)c1)c1cccc(S(=O)(=O)N2CCCCCC2)c1,cell number change,,-2.42%
O=S(=O)(Nc1ccc2c(c1)OCO2)c1ccc(Cl)cc1F,cell number change,,19.8%
COc1cc(C(=O)NCc2cc3ccccc3n2C)cc(OC)c1OC,cell number change,,-6.2%
c1ccc(Cn2c(-c3ccco3)nc3nc4ccccc4nc32)cc1,cell number change,,-52.9%
same,AC50,[2],"11.6 µM [falling, partial curve]"
same,AC50,[1],"14.6 µM [falling, partial curve]"
COc1ccc(Cl)cc1C(=O)N1CCN(Cc2ccc3c(c2)OCO3)CC1,cell number change,,14.4%
same,AC50,[2],"0.00651 µM [rising, full curve, poor fit]"
Cc1ccccc1N(CC(=O)Nc1ccc(F)cc1)S(C)(=O)=O,cell number change,,30.2%
same,AC50,[2],"0.517 µM [rising, full curve]"
COC(=O)CCC(=O)Nc1sc(C)c(C)c1C(N)=O,cell number change,,-37.1%
same,AC50,[2],"18.4 µM [falling, partial curve, poor fit]"
CCOc1cc(C(=O)NCc2ccc(-c3nc4ccccc4o3)cc2)cc(OCC)c1OCC,cell number change,,-37.2%
same,AC50,[2],"5.8 µM [falling, full curve, poor fit]"
same,AC50,[1],"3.66 µM [falling, full curve, poor fit]"
CC(=O)OCC1(C)CN(c2ccccc2)N(C(C)=O)C1=O (stereo unspecified),cell number change,,54.4%
same,AC50,[2],"0.651 µM [rising, full curve, poor fit]"
same,AC50,[1],"0.231 µM [rising, full curve, poor fit]"
CCN(CC(=O)Nc1ccc(NC(C)=O)cc1)C(=O)c1ccc(C(=O)c2ccccc2)cc1,cell number change,,2.06%
same,AC50,[1],"18.4 µM [rising, single point]"
Cc1cccc(NC(=O)COC(=O)CCc2c[nH]c3ccccc23)c1,cell number change,,-48.9%
same,AC50,[2],"29.1 µM [falling, single point]"
COc1ccc(C(C(=O)NC2CCCCC2)N(C(=O)c2sc(C)nc2C)c2ccccc2)cc1 (stereo unspecified),cell number change,,-31.8%
same,AC50,[2],"32.6 µM [falling, single point]"
same,AC50,[1],"6.51 µM [falling, single point]"
CCCc1cnc(N2CCN(C(=O)c3ccccc3)CC2)nc1,AC50,[1],"7.31 µM [rising, partial curve]"
CCCn1c(=O)[nH]c(=O)c2c1nc(-c1ccc(C(F)(F)F)cc1)n2CCOC,cell number change,,7.14%
same,AC50,[1],"10.3 µM [rising, partial curve, poor fit]"

# Part of the list above, reformatted:
compound	measurement	setting	value
Nc1[nH]ncc1N=Nc1ccc(Cl)cc1	AC50	[1]	0.0184 µM [rising, full curve, poor fit]
COc1ccc(NC(=O)CN(C)CC(=O)Nc2ccc(Cl)cc2F)cc1	AC50	[1]	0.00461 µM [rising, full curve, poor fit]
CCC(=O)N(Cc1cc2cc(OC)ccc2[nH]c1=O)c1ccc(C)cc1C	AC50	[1]	1.3 µM [rising, single point]
COc1cc2c(cc1NC(=O)CSc1cccc[n+]1[O-])oc1ccccc12	AC50	[2]	5.8 µM [falling, partial curve, poor fit]
Cc1ccc(S(=O)(=O)N(C)C)cc1NC(=O)C(C)Sc1ccccc1 (stereo unspecified)	AC50	[2]	0.116 µM [rising, full curve, poor fit]
CCOc1ccc(-n2nc3ccc(NC(=O)CC)cc3n2)cc1	AC50	[1]	2.31 µM [rising, single point]
CCn1c(SCC(=O)N2CCCC2)nnc1-c1ccc(S(=O)(=O)N2CCCCCC2)cc1	cell number change		-0.0913%
same	AC50	[2]	0.92 µM [falling, full curve, poor fit]
CC1CCCCN1CCCNC(=O)c1nn(C)c2c1CSc1ccccc1-2 (stereo unspecified)	cell number change		19.9%
COc1ccccc1NC(=O)N1CCN(CCc2ccccc2)CC1	AC50	[1]	6.51 µM [rising, single point]
CC(=O)NCCC(=O)Nc1cccc(S(=O)(=O)N(C)c2ccccc2)c1	cell number change		11.7%
same	AC50	[1]	16.4 µM [rising, single point]
CC(SC1=Nc2ccccc2C2CC=NN12)C(=O)NC1(C#N)CCCCC1 (stereo unspecified)	cell number change		-73.8%
O=C(NCCCO)c1ccc2[nH]c3c(c2c1)CCCC3	AC50	[2]	1.84 µM [rising, partial curve]
same	AC50	[1]	1.3 µM [rising, partial curve]
COc1ccc2cc(C(=O)C3CCCN(Cc4cnc(N5CCOCC5)s4)C3)ccc2c1 (stereo unspecified)	cell number change		-7.16%
same	AC50	[1]	0.00461 µM [falling, full curve, poor fit]
CCOC(=O)c1ccn(CSc2c(F)c(F)cc(F)c2F)n1	cell number change		-2.86%
CN(C)CCN=Cc1c(O)n(Cc2ccccc2)c(=O)c2ccccc12	AC50	[1]	0.058 µM [falling, full curve, poor fit]
CC(=O)c1ccc(OCc2cc(C(=O)NC(C)Cc3ccccn3)no2)cc1 (stereo unspecified)	cell number change		-12.5%
CCOc1cc(/C=N\NC(=O)Cn2nnc3ccccc32)ccc1O	AC50	[1]	0.116 µM [rising, single point]
CC(CCc1ccccc1)NC(=O)/C=C/c1ccc(Cl)cc1 (stereo unspecified)	AC50	[1]	9.2 µM [rising, partial curve, poor fit]
CCOc1cc(C(=O)NCc2ccc(-c3nc4ccccc4o3)cc2)cc(OCC)c1OCC	cell number change		-37.2%
same	AC50	[2]	5.8 µM [falling, full curve, poor fit]
same	AC50	[1]	3.66 µM [falling, full curve, poor fit]
CC(=O)OCC1(C)CN(c2ccccc2)N(C(C)=O)C1=O (stereo unspecified)	AC50	[2]	0.651 µM [rising, full curve, poor fit]
CCN(CC(=O)Nc1ccc(NC(C)=O)cc1)C(=O)c1ccc(C(=O)c2ccccc2)cc1	AC50	[1]	18.4 µM [rising, single point]
Cc1cccc(NC(=O)COC(=O)CCc2c[nH]c3ccccc23)c1	AC50	[2]	29.1 µM [falling, single point]
COc1ccc(C(C(=O)NC2CCCCC2)N(C(=O)c2sc(C)nc2C)c2ccccc2)cc1 (stereo unspecified)	AC50	[1]	6.51 µM [falling, single point]
